# Laboratory results from patent US20110059051.
# Amino acid sequences for entries named in this document (tags omitted). A change or cut given only in a name is not applied to a line headed by its entry.
# UniProt A2A935: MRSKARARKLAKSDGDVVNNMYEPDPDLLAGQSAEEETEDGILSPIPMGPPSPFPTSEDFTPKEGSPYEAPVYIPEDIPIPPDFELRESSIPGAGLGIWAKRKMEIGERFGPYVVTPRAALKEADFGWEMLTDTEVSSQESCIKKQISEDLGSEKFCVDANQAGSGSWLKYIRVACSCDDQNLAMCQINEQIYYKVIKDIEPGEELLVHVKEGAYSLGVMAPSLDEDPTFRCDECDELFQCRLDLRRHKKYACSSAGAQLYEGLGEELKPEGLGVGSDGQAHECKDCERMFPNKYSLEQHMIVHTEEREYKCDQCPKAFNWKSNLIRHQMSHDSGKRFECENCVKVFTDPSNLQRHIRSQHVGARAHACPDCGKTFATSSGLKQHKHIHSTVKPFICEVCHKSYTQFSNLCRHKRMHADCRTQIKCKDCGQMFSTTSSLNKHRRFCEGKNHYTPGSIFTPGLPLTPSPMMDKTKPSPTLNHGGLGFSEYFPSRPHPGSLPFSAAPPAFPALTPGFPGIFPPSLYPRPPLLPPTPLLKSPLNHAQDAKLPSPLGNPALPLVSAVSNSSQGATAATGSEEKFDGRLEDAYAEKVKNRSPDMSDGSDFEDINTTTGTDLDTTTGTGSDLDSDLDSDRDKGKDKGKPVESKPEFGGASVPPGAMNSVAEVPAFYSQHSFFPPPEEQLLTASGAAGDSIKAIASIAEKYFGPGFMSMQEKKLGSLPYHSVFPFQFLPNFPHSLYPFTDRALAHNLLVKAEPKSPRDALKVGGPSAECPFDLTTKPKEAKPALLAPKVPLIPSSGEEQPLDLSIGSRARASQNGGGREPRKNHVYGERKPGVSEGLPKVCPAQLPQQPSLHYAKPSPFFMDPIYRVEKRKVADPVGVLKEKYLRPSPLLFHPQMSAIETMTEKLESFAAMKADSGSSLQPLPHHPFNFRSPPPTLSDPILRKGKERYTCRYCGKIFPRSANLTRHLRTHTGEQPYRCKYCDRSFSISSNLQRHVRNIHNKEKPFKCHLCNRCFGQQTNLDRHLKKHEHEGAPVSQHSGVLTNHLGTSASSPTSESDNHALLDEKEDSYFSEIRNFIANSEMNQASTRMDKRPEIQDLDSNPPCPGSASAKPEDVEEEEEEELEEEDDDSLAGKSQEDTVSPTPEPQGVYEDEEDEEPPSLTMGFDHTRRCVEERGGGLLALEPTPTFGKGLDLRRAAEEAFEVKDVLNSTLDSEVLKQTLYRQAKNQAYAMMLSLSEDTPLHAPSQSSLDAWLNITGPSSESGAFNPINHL
# For at least one entry, the source does not settle the construct or the ends of the probe. Where a protein sequence is shown, tags need not be part of it.
# Target: T1, PRDM16 wild type (Mus musculus) (UniProt A2A935)
# T1 sequence (limits assumed): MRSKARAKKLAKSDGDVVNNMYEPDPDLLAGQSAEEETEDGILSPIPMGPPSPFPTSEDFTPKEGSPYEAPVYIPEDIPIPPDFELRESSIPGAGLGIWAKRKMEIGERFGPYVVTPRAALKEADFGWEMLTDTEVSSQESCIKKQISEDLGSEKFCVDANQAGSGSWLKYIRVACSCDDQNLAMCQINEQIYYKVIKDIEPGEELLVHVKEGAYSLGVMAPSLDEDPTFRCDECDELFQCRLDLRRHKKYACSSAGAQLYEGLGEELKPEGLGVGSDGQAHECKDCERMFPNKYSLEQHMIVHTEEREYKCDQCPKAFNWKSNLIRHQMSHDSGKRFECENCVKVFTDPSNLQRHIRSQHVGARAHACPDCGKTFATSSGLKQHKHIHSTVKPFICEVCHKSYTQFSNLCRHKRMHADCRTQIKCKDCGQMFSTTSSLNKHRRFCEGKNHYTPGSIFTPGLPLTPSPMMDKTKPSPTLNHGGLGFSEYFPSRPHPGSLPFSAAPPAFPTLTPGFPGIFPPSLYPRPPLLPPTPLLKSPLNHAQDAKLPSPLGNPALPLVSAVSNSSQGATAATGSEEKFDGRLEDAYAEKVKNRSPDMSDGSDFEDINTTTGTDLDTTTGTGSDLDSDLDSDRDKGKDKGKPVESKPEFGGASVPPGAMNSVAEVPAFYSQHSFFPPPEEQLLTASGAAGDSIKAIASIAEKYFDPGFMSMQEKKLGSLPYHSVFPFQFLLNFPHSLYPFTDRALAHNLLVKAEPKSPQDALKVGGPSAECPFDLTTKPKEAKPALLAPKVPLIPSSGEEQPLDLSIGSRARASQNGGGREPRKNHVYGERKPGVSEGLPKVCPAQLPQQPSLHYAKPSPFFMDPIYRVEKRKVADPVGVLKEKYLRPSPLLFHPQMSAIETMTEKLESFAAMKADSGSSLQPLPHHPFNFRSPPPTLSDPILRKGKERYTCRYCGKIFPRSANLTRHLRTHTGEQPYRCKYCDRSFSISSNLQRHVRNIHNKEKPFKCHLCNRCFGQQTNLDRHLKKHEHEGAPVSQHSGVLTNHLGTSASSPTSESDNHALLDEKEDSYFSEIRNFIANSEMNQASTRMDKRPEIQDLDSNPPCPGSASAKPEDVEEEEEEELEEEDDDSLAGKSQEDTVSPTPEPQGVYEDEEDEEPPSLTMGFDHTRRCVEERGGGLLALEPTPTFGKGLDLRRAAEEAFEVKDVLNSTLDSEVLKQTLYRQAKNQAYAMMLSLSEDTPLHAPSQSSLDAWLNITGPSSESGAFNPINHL
# Assay: EMSA
# Settings: 10 mM Tris-HCl pH 7.5, 50 mM NaCl, 1 mM MgCl2, poly(dI-dC); 5 fmol probe, unlabeled probe competition with 50 or 500 fmol; protein translated in vitro; label: 32P end label
sequence,measurement,value
GATCCGACAAGATAAGATAAGGATCTATAAGAAGATGAGGTATG (double strand) [PRDM16 consensus binding site EMSA probe],binding result,binds
